# PubChem BioAssay AID743454 – Peter MacCallum Cancer Centre – 2014
# Screen: 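Knock-downs lowering viability or raising caspase 3/7 activity in vorinostat-treated resistant cells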 (primary screen)
# Cell system: human HCT116-VR colon cancer cells, selected for vorinostat resistance
# Reagents: siRNA pool against human genes, 40 nM siRNA pool
# Timing: vorinostat for 24 h, read-out about 72 h after transfection
# Conditions: vorinostat at 2.5 µM final
# Measurement: 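Cell viability by CellTiter-Fluor and caspase 3/7 activity by luminescence, each scaled to mock wells per plate, duplicates averaged, then robust z-scored over all plates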
# Scale: viability robust z-score: higher = more viable cells than screen typical; caspase robust z-score: higher = more caspase 3/7 activity than screen typical
# Call rule: 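a knock-down is a hit when classed RV1 or RV2 for lowered viability, or CA1 or CA2 for caspase activation; those lethal without drug were dropped; hits were retested singly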
# In all, the deposit lists about 18,000 reagents; shown is a random part of them. Over the whole deposit, 450 (2.5%) got an active call. 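Single biological run; no consistent viability z cut-off exists, so the class columns, not z-scores, define the calls.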 Unmarked entries are inactive. Reagent sequences are not shown.
gene symbol,viability hit class,caspase hit class,viability robust z-score,caspase robust z-score
DNAJB12,no change,no change,0.02,-1.23
TBXA2R,no change,no change,-1.66,-0.63
TIMP3,no change,no change,0.04,0.36
H4C4,no change,no change,-1.08,0.16
TXNIP,no change,no change,-0.63,1.84
ZNF460,no change,no change,-0.38,0.26
SIGLEC6,no change,no change,0.6,-0.06
PPP1CB,no change,no change,-0.67,2.46
GTF3C1,no change,no change,0.38,0.38
CARD14,no change,no change,-1.55,2.8
UCP1,no change,no change,1,-0.66
HTR1E,no change,no change,-0.36,3.86
LSM3,no change,no change,0.54,-0.78
CATSPER2,no change,no change,1.54,-0.15
SCLT1,no change,no change,1.16,-0.87
OR6C76,no change,no change,-0.22,1.07
KCNH6,no change,no change,-2.23,2.76
CDR1,no change,no change,-0.99,-1.06
FAM78A,no change,no change,0.48,-0.3
DFFA,no change,no change,0.76,0.94
NINL,no change,no change,1.17,0.2
WDR38,no change,no change,0.3,0.02

2 consecutive reagents already listed:
gene symbol,viability hit class,caspase hit class,viability robust z-score,caspase robust z-score
SCLT1,no change,no change,1.16,-0.87
OR6C76,no change,no change,-0.22,1.07

Next reagents:
gene symbol,viability hit class,caspase hit class,viability robust z-score,caspase robust z-score
ATP6V1C1,no change,no change,-2.79,0.89
IP6K2,no change,no change,-0.1,3.87
TNFSF15,no change,no change,0.01,0.27
NPVF,no change,no change,0.32,0.42
RNF6,no change,no change,0.48,0.17
TTI2,no change,no change,0.4,-0.57
IDH3B,no change,no change,-1.13,-1.36
PTPA,no change,no change,-0.77,0
PRTN3,no change,no change,-4.05,1.29
CELSR3,no change,no change,-1.92,2.6
CYP2A6,no change,no change,1.82,-0.05
HCN1,no change,no change,0.96,-0.14
MCOLN2,no change,no change,0.06,2.64
LRRC10,no change,no change,-0.84,-0.16
WFDC12,no change,no change,-0.51,0.32
H4C2,no change,no change,-1.5,-0.4
YARS1,no change,no change,0.2,0.8
RPS6KA1,no change,no change,-2.06,-0.87
RHBDF2,no change,no change,-1.3,-0.97
DEFB106B,no change,no change,0.42,-0.18
UBE2U,no change,no change,1.77,-0.4
NEUROD6,no change,no change,-1.25,2.51
MED26,RV2 (reduced viability) (active),CA2 (caspase activation),-3.46,6.13
FBL,no change,no change,-2.48,-0.1
ZBTB25,no change,no change,0.91,0.68
TSPAN15,no change,no change,-0.66,-0.82
ANGPTL8,no change,no change,0.18,1.1
DLG3,no change,no change,2,-0.43
NALCN,no change,no change,0.75,-0.45
TTYH1,no change,no change,0.48,-0.18
RNF14,no change,no change,0.36,-0.3
DEFA5,no change,no change,0.55,-0.4
TPH2,no change,no change,0.92,0.6
ZBTB11,no change,no change,1.52,1.38
SERGEF,no change,no change,0.08,0.44
